Measured values published in US12551482B2, “Aurora kinase inhibitors” (The Regents of the University of California, priority 2013, dated 2026).

Tested on: SK-N-BE(2) MYCN-amplified neuroblastoma cells
Assay: Viability at 72 hrs, CyQUANT assay
Format: cell-based
Conditions: Homo sapiens, SKNBE2, SK-N-BE(2) cells, FIG. 1E, read-out: cellular EC50 at 72 hrs
Description: Neuroblastoma cells were treated for the indicated time, trypsinized, washed, stained with Dylight 800 at 0.3 μg/mL (Pierce, 46421), fixed with 1.5% PFA, and permeabilized with 100% methanol. Cells were then stained with antibodies against p-MPM2 (Millipore, 16-155), p-pan-Aurora (Cell Signaling, 2914), MYCN (Thermo, PA5-17403), rabbit IgG (Invitrogen, A10542), or mouse IgG (BioLegend, 405307). Cells were stained with DAPI at 0.3 μg/mL (Invitrogen, D21490) and analyzed on the BD LSR II flow cytometer. For cell cycle analysis, cells were stimulated with EdU for 2 hours prior to harvest, then probed using the Click-iT EdU Flow Cytometry Assay Kit (Invitrogen, C10424). Cells were stained with propidium iodide (BD, 556547) and analyzed on the BD FACSCalibur flow cytometer. Data was gated using Cytobank. For viability studies, neuroblastoma cells were plated in 96-well plates at a density of 1,000 cells/well for SHEP or 4,000 cells/well for Kelly or SK—N-BE2 cells, then incubated with indicated concentrations of drug for 72 hours at 37° C. […] CyQUANT reagent mixture (Invitrogen, C7026) was added to thawed plates, then fluorescence was measured. Alternatively, resazurin (Sigma-Aldrich, R7017) was added directly to wells following drug treatment then incubated for 4 hours at 37° C. prior to measuring fluorescence. Data was analyzed using GraphPad Prism software.

Work on `COc1cc(Nc2ncc3c(n2)-c2ccc(Cl)cc2C(c2c(F)cccc2OC)=NC3)ccc1C(=O)O` [MLN8237] yielded an EC50 of 40.9 nM.
